Data reported in the supplement of paper PMC8728848.
The list shows a part of the results.

Tests used:
Test in all cases: glycan array binding signal (z-score within array); higher = stronger binding
Conditions in all cases: glycan notation: IUPAC condensed, linker removed
[1] = target: Fuc(a1-2)[Gal(a1-4)]Gal(b1-4)GlcNAc
Outline: (§1)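 Glycan array data were curated from 3228 arrays in the Consortium for Functional Glycomics database and kept only where the protein sequence was available. Glycan names were converted to IUPAC-condensed notation, and columns mapping to the same glycan were averaged. The binding signal is a within-array Z-score, averaged across arrays of the same protein sequence at different concentrations or buffers and across linkers. Negative Z-scores can be read as non-binding.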

[2] = target: Fuc(a1-2)[GalNAc(a1-3)]Gal
Outline: as §1

[3] = target: Fuc(a1-2)[GalNAc(a1-3)]Gal(b1-3)GalNAc(a1-3)[Fuc(a1-2)]Gal(b1-4)GlcNAc
Outline: as §1

[4] = target: Fuc(a1-2)[GalNAc(a1-3)]Gal(b1-3)GalNAc(b1-3)Gal(a1-4)Gal(b1-4)Glc
Outline: as §1

[5] = target: Fuc(a1-2)[GalNAc(a1-3)]Gal(b1-3)GlcNAc
Outline: as §1

[6] = target: Fuc(a1-2)[GalNAc(a1-3)]Gal(b1-3)GlcNAc(b1-2)Man(a1-3)[Fuc(a1-2)[GalNAc(a1-3)]Gal(b1-3)GlcNAc(b1-2)Man(a1-6)]Man(b1-4)GlcNAc(b1-4)GlcNAc
Outline: as §1

[7] = target: Fuc(a1-2)[GalNAc(a1-3)]Gal(b1-3)GlcNAc(b1-2)Man(a1-3)[Fuc(a1-2)[GalNAc(a1-3)]Gal(b1-3)GlcNAc(b1-2)Man(a1-6)]Man(b1-4)GlcNAc(b1-4)[Fuc(a1-6)]GlcNAc
Outline: as §1

[8] = target: Fuc(a1-2)[GalNAc(a1-3)]Gal(b1-3)GlcNAc(b1-3)GalNAc
Outline: as §1

[9] = target: Fuc(a1-2)[GalNAc(a1-3)]Gal(b1-3)GlcNAc(b1-6)GalNAc
Outline: as §1

[10] = target: Fuc(a1-2)[GalNAc(a1-3)]Gal(b1-4)Glc
Outline: as §1

[11] = target: Fuc(a1-2)[GalNAc(a1-3)]Gal(b1-4)GlcNAc
Outline: as §1

[12] = target: Fuc(a1-2)[GalNAc(a1-3)]Gal(b1-4)GlcNAc(b1-2)Man
Outline: as §1

[13] = target: Fuc(a1-2)[GalNAc(a1-3)]Gal(b1-4)GlcNAc(b1-2)Man(a1-3)[Fuc(a1-2)[GalNAc(a1-3)]Gal(b1-4)GlcNAc(b1-2)Man(a1-6)]Man(b1-4)GlcNAc(b1-4)GlcNAc
Outline: as §1

[14] = target: Fuc(a1-2)[GalNAc(a1-3)]Gal(b1-4)GlcNAc(b1-2)Man(a1-3)[Fuc(a1-2)[GalNAc(a1-3)]Gal(b1-4)GlcNAc(b1-2)Man(a1-6)]Man(b1-4)GlcNAc(b1-4)[Fuc(a1-6)]GlcNAc
Outline: as §1

[15] = target: Fuc(a1-2)[GalNAc(a1-3)]Gal(b1-4)GlcNAc(b1-3)Gal(b1-4)GlcNAc
Outline: as §1

[16] = target: Fuc(a1-2)[GalNAc(a1-3)]Gal(b1-4)GlcNAc(b1-3)Gal(b1-4)GlcNAc(b1-3)Gal(b1-4)GlcNAc
Outline: as §1

[17] = target: Fuc(a1-2)[GalNAc(a1-3)]Gal(b1-4)GlcNAc(b1-3)GalNAc
Outline: as §1

[18] = target: Fuc(a1-2)[GalNAc(a1-3)]Gal(b1-4)GlcNAc(b1-3)[Fuc(a1-2)[GalNAc(a1-3)]Gal(b1-4)GlcNAc(b1-6)]GalNAc
Outline: as §1

[19] = target: Fuc(a1-2)[GalNAc(a1-3)]Gal(b1-4)GlcNAc(b1-6)GalNAc
Outline: as §1

[20] = target: Fuc(a1-2)[GalNAc(a1-3)]Gal(b1-4)[Fuc(a1-3)]GlcNAc
Outline: as §1

[21] = target: Fuc(a1-2)[GalNAc(a1-3)]Gal(b1-4)[Fuc(a1-3)]GlcNAc(b1-3)GalNAc
Outline: as §1

[22] = target: Fuc(a1-2)[GalNAc(a1-4)]Gal(b1-4)GlcNAc
Outline: as §1

[23] = target: Fuc(a1-2)[GalNAc(b1-3)]Gal
Outline: as §1

Fuc(a1-3)GlcNAc = target: Fuc(a1-3)GlcNAc
Outline: as §1

[24] = target: Fuc(a1-3)[Gal(b1-4)]Glc6S
Outline: as §1

[25] = target: Fuc(a1-3)[Gal(b1-4)]GlcNAc
Outline: as §1

[26] = target: Fuc(a1-3)[Gal(b1-4)]GlcNAc(b1-2)Man
Outline: as §1

[27] = target: Fuc(a1-3)[Gal(b1-4)]GlcNAc(b1-2)Man(a1-3)[Fuc(a1-3)[Gal(b1-4)]GlcNAc(b1-2)Man(a1-6)]Man(b1-4)GlcNAc(b1-4)GlcNAc
Outline: as §1

[28] = target: Fuc(a1-3)[Gal(b1-4)]GlcNAc(b1-2)Man(a1-3)[Fuc(a1-3)[Gal(b1-4)]GlcNAc(b1-2)Man(a1-6)]Man(b1-4)GlcNAc(b1-4)[Fuc(a1-6)]GlcNAc
Outline: as §1

[29] = target: Fuc(a1-3)[Gal(b1-4)]GlcNAc(b1-3)Gal(b1-3)[Fuc(a1-4)]GlcNAc
Outline: as §1

[30] = target: Fuc(a1-3)[Gal(b1-4)]GlcNAc(b1-3)GalNAc
Outline: as §1

[31] = target: Fuc(a1-3)[Gal(b1-4)]GlcNAc(b1-4)Gal(b1-4)[Fuc(a1-3)]GlcNAc
Outline: as §1

[32] = target: Fuc(a1-3)[Gal(b1-4)]GlcNAc(b1-4)Gal(b1-4)[Fuc(a1-3)]GlcNAc(b1-4)Gal(b1-4)[Fuc(a1-3)]GlcNAc
Outline: as §1

[33] = target: Fuc(a1-3)[Gal(b1-4)]GlcNAc(b1-6)GalNAc
Outline: as §1

[34] = target: Fuc(a1-3)[Gal(b1-4)]GlcNAc(b1-6)[Gal(b1-3)GlcNAc(b1-3)]Gal(b1-4)Glc
Outline: as §1

[35] = target: Fuc(a1-3)[Gal(b1-4)]GlcNAc6S
Outline: as §1

[36] = target: Fuc(a1-3)[Gal3S(b1-4)]Glc
Outline: as §1

[37] = target: Fuc(a1-3)[Gal3S(b1-4)]GlcNAc
Outline: as §1

B1: RbmA (Vibrio cholerae), A0A2H4NFB8 (protein)
chain: MSNFKGSIMNKRHYYLASCLALLFSTASYAEVDCELQPVIEANLSLNQNQLASNGGYISSQLGIRNESCETVKFKYWLSIKGPEGIYFPAKAVVGVDTAQQESDALTDGRMLNVTRGFWVPEYMADGKYTVSLQVVAENGEVFKANQEFVKGGDLNSLPELNGLTIDIKNQFGINSVESTGGFVPFTIDLNNGREGEAKVEFWMTAVGPDGLIIPVHSREKWMIIAGNTFSKVRGINFDKSYPAGEYTINAQVVDIVSGERVEQLMTVVKK
glycan array binding signal (z-score) [1]: -0.6
glycan array binding signal (z-score) [2]: 0.428
glycan array binding signal (z-score) [3]: -0.209
glycan array binding signal (z-score) [4]: 0.289
glycan array binding signal (z-score) [5]: -0.442
glycan array binding signal (z-score) [6]: 0.451
glycan array binding signal (z-score) [7]: -1.44
glycan array binding signal (z-score) [8]: 0.855
glycan array binding signal (z-score) [9]: -0.859
glycan array binding signal (z-score) [10]: -0.634
glycan array binding signal (z-score) [11]: -0.331
glycan array binding signal (z-score) [12]: -0.393
glycan array binding signal (z-score) [13]: -0.735
glycan array binding signal (z-score) [14]: 0.066
glycan array binding signal (z-score) [15]: -0.198
glycan array binding signal (z-score) [16]: 1.52
glycan array binding signal (z-score) [17]: 2.25
glycan array binding signal (z-score) [18]: 0.012
glycan array binding signal (z-score) [19]: 1.33
glycan array binding signal (z-score) [20]: -0.042
glycan array binding signal (z-score) [21]: 0.264
glycan array binding signal (z-score) [22]: -0.816
glycan array binding signal (z-score) [23]: -0.195
glycan array binding signal (z-score) (Fuc(a1-3)GlcNAc): -0.597
glycan array binding signal (z-score) [24]: -0.877
glycan array binding signal (z-score) [25]: -0.216
glycan array binding signal (z-score) [26]: -0.564
glycan array binding signal (z-score) [27]: 1.58
glycan array binding signal (z-score) [28]: -0.094
glycan array binding signal (z-score) [29]: -0.858
glycan array binding signal (z-score) [30]: -0.565
glycan array binding signal (z-score) [31]: -0.62
glycan array binding signal (z-score) [32]: 0.07
glycan array binding signal (z-score) [33]: 1.39
glycan array binding signal (z-score) [34]: -0.473
glycan array binding signal (z-score) [35]: 0.469
glycan array binding signal (z-score) [36]: 1.96
glycan array binding signal (z-score) [37]: 0.861
